No constants are given. Whether binding was seen depends on the method and setting. In cells and extracts the contact can be indirect. Some entries that bind do so weakly or less than the wild type. Tags and fused reporters may be left off the sequences shown.
Columns and labels:
[1] = biological target: T1, V5-SBP-DAP5 (Death-associated protein 5), full length (human) (UniProt P78344); test: pull-down
T1 sequence: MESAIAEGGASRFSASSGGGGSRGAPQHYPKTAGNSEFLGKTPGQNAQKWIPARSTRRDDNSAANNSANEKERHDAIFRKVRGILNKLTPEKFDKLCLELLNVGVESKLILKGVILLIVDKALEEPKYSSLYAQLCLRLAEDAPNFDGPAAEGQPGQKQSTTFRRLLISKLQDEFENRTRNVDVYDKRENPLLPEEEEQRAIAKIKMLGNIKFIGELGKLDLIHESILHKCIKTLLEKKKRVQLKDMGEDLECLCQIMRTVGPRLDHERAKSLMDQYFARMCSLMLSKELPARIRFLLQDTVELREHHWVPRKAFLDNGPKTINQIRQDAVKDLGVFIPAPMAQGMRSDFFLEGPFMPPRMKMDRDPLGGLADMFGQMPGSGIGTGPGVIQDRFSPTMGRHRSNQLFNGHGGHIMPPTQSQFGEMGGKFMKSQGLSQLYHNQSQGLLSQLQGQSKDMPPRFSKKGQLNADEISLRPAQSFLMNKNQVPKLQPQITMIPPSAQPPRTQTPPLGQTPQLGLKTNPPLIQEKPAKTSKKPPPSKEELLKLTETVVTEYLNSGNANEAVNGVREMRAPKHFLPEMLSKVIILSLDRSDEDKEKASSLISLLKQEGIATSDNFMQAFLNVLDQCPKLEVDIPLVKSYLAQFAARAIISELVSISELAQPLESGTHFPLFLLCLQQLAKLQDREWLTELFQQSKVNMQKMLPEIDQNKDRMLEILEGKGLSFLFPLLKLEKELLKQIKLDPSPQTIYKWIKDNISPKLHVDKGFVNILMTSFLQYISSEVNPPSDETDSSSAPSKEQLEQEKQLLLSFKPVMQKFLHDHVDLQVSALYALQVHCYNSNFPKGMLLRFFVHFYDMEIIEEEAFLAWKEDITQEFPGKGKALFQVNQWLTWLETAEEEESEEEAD

By UniProt entry, the sequences of proteins in these tests, tags left out.
UniProt Q14240: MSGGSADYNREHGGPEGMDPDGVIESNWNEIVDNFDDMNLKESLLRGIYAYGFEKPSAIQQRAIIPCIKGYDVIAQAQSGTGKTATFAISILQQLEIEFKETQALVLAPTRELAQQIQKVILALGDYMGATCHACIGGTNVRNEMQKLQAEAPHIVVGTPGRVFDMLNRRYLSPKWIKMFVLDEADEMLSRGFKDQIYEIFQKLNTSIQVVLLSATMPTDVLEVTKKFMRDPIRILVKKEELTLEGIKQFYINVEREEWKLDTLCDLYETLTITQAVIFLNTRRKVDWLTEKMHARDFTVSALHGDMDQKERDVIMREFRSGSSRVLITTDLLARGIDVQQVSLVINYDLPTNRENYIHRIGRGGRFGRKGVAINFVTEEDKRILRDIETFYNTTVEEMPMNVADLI
UniProt P20042: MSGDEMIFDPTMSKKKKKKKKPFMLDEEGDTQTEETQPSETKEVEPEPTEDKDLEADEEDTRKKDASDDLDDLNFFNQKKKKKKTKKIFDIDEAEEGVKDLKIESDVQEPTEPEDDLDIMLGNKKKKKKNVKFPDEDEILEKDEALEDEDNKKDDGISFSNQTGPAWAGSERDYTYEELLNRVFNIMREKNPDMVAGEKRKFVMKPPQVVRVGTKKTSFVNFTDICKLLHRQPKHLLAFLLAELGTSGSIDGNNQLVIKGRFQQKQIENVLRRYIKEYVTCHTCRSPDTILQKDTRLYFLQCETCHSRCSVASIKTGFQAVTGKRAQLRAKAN

[2] = biological target: T2, V5-SBP-DAP5 ΔW2 (residues 1-722) (human) (UniProt P78344); test: pull-down
T2 sequence: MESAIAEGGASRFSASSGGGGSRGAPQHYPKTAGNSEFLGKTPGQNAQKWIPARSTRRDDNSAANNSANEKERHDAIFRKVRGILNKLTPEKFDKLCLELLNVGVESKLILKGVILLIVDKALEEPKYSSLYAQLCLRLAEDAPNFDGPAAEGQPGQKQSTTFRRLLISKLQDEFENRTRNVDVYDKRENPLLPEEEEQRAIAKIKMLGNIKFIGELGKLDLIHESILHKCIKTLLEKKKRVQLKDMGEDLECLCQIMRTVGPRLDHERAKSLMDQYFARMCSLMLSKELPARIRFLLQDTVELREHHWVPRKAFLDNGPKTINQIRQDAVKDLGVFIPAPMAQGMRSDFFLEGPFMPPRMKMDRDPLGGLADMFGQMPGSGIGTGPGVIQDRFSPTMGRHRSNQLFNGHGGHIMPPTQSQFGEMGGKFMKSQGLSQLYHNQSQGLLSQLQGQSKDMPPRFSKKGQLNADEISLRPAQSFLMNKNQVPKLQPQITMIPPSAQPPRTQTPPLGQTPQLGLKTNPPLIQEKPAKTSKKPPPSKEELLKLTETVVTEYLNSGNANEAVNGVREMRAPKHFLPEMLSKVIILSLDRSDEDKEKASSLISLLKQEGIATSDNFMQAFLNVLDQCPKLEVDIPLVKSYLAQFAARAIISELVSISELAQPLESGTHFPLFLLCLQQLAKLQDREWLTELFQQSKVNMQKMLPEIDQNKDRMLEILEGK

Substance | binding [1] | binding [2]
eIF4A2 (from UniProt Q14240 1-407) | binds | –
GFP-eIF2β (from UniProt P20042 1-333) | binds | no binding
